Test [1] has as its target Phosphate-specific transport substrate-binding protein-1 (PstS1), construct PstS1Δ24 (Mycobacterium tuberculosis H37Rv) (UniProt P9WGU1). The test can be described thus: SEC; both purified. Background: Size exclusion chromatography separates by hydrodynamic size, large species first.
The target in test [2] is heterodimeric complex of EsxB and EsxA (EsxBA) (Mycobacterium tuberculosis H37Rv) (UniProt P9WNK5). The test can be described thus: SEC; both purified.

By UniProt entry, the sequences of proteins in these tests, tags left out. Where a name states a change or a piece, a line headed by the entry shows the natural chain unless it says otherwise. Residues count along the entry.
UniProt P9WGU1, 24-374, stated change not applied: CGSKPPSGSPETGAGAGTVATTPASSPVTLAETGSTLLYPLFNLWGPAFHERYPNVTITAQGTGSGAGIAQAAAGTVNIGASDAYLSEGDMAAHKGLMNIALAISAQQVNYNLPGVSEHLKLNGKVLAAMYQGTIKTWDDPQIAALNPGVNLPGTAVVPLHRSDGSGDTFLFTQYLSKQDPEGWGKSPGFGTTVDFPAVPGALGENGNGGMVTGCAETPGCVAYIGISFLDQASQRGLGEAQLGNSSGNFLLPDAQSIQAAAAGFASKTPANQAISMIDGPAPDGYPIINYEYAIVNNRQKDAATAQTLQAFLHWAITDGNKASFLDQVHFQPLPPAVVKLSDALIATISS

These are yes or no findings as the source states them, for the method shown.

As to “Phosphate-specific transport substrate-binding protein-1 (PstS1), construct PstS1Δ24 (from UniProt P9WGU1 24-374)”, in test [1], the binding result is listed as “no binding”. With “heterodimeric complex of EsxB and EsxA (EsxBA) (from UniProt P9WNK5;P9WNK7)”, in test [2], the binding result is given as “no binding”.

Source of the values: article PMC5095800, “A standardized production pipeline for high profile targets from Mycobacterium tuberculosis” (Proteomics. Clinical Applications, 2016).
